Experiment: Competition ELISA (PMI-1, V43 standard) on cell free urine samples from a normal donor
Parameters: species or system human
Settings: for Equivalents of peptide V43 detectable in the urine using PMI-1: normal donor
Description: Assays to detect C-terminal hGPIIb fragment can be performed on “platelet-poor” plasma, serum or urine samples without concentration. Urine (serum and plasma are used in similar fashion) samples were centrifuged at 15,000×g for 5 min at room temp, and the resulting supernatants were collected to form cell free urine samples. The resulting cell-free urine samples are substantially free of platelets and therefore any hGPIIb fragment present in the sample is in the form of soluble, cell-free, hGPIIb fragment. Fifty microliters (ul) of coating solution (0.1M NaHCO3, pH 8.0, 0.1% NaN3) containing 10 ug/ml of isolated GPIIb-IIIa prepared as described in Example 1b were admixed into the wells of flat-bottom 96-well microtiter plates (Immulon 2; Dynatech Laboratories, Chantilly, Va.). The plates were then maintained for 60 minutes at 37° C. to permit the GPIIb-IIIa to adsorb onto the walls of the wells. The coating solution was removed by shaking and 200 ul of blocking solution [5% bovine serum albumin (BSA;w/v) in coating solution] were admixed into each well (solid support) to block excess protein sites.
The wells were maintained for 60 minutes at about 37° C. and then the blocking solution was removed by rinsing the wells thrice with wash buffer (10 mM Tris at pH 7.4, 0.05% (v/v) TWEEN-20, 0.15 M NaCl, and 200 mg/ml merthiolate). […] TAB was obtained from Dr. R. McEver, University of Texas (San Antonio, Tex.). About 50 ul of monoclonal antibody, diluted 1:1 in incubation buffer consisting of 0.1% (w/v) BSA in wash buffer, was admixed, along with the sample to be tested, to each well to form an immunoreaction admixture. The proportions were as follows: […]
Fifty ul of freshly prepared chromogenic substrate solution containing 4.0 mg/ml 0-phenylenediamine and 0.012% (v/v) hydrogen peroxide in CP buffer (243 ml of 0.1 M citric acid and 250 ml of 0.2 M dibasic sodium phosphate per liter H2O, pH 5.0) were then admixed into each well to form a color developing-reaction admixture. After maintaining the color developing-reaction admixture for 10 minutes at about 20 C., 50 ul of 2 N H2SO4 were admixed into each well to stop the developing-reaction, and the resulting solutions were assayed for absorbance at 490 nanometers (nm) light wavelength using a Model 310 ELISA plate reader (Bio-Tek Instruments, Winooski, Vt.).
Absorbance measurements obtained using standard were plotted against micromolar (uM) concentration of standard in the immunoreaction admixture to produce a standard curve. […]

In the case of “C-terminal hGPIIb fragment: proteolytic fragment of GPIIb heavy chain, SEQ ID NO 3 residues 173 to 200, about 3900 daltons (PQPPVNPLKVDWGLPIPSPSPIHPAHHK)”, the “normalized value of C-terminal hGPIIb fragment in undiluted urine” value (normal donor's urine) is reported as 14.4 µM, the “Equivalents of peptide V43 detectable in the urine using PMI-1” value (shortened to “Equivalents of peptide V43 detectable”) (urine dilution 1:2) is reported as 1.5 µM and the “Equivalents of peptide V43 detectable” value (urine dilution 1:4) is reported as 3.8 µM. The “Equivalents of peptide V43 detectable” value (urine dilution 1:8) was 1.5 µM.

Reference: patent publication US6787320B2, “In vitro methods for determining in vivo thrombotic events” (The Scripps Research Institute, priority 1991, dated 2004)
